The results in this text go back to article PMC3502493.

Results are given in words; binding and its absence hold for the method and conditions named.

The test concerns the target T1, dysferlin-peptide B3 (15mer, analogous to wildtype) (human immunodeficiency virus type 1 | human).
T1 sequence (peptide, C-terminal amide): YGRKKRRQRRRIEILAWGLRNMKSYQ
Put plainly: SPR; Biacore 2000 with CM5 sensor chip; recombinant C2E domain harboring DYSF p.L1341P as analyte, tested against peptides B1, B2 and B3; both purified. (In SPR one partner is held on a chip, and binding of the other changes the refractive index at the surface.)

Regarding “recombinant C2E domain of dysferlin containing the DYSF p.L1341P mutation (human) (domain or fragment)”, the binding result is “no binding”.
